Experimental findings from patent US20190323012 are described below.

Chains of the proteins cited; added tags and fusions are not shown. Residues count along the entry.
UniProt P01375, 77-233: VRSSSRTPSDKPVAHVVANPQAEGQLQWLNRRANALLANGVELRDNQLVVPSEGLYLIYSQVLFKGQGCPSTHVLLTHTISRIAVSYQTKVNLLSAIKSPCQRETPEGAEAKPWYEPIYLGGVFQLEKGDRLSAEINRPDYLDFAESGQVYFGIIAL

For some of these results: For at least one entry, the source does not settle the construct or the ends of the probe. For some of these results: Negatives hold for the conditions tested. For some of these results: Tags and fusion partners may be left off the protein sequences shown.

What is called Kd is the equilibrium constant for the complex coming apart.

The target of data set [1] is T1, IGF-BP1 (insulin-like growth factor-binding protein 1) (UniProt P08833).
T1 sequence (looked up, limits assumed): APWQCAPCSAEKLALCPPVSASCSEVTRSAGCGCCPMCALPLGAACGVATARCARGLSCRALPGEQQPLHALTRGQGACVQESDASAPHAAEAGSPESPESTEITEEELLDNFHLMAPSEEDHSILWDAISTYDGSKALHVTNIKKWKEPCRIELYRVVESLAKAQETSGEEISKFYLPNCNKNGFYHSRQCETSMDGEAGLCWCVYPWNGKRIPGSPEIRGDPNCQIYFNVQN
The data set can be described thus: SPR. Conditions: 2'-F on all C and U; specificity control; seldom bound; purified recombinant protein; protein details: ThermoFisher.

Data set [2] deals with TNF-alpha (Homo sapiens) (UniProt P01375). Kind of data set: ELONA. Conditions: 2'-F on all C and U; plate-based binding assay, average of five experiments; reported as binding affinity; DPBS, 0.1% BSA, room temperature; purified recombinant protein.
Data set [3] shares this target. Kind of data set: activity in cells. Conditions: 2'-F on all C and U, inhibits TNF-alpha induced NO generation in RAW 264.7 cells at 2 ug/mL, TNF-alpha species not stated in this assay, purified recombinant protein.
The target is the same in data set [4]. Kind of data set: EMSA. Conditions: 2'-F on all C and U; 30 mM Tris-HCl pH 7.5, 150 mM NaCl, 1.5 mM MgCl2, 2 mM DTT, tRNA, room temperature; radiolabeled RNA 50 pM; purified recombinant protein. For orientation: A gel shift assay detects complexes by their altered migration in electrophoresis.

In the case of “GCGGAAGCGUGCUGGGCCCGGCUUGCAGGUCGCCGAAAUGACCGCACACAUAACCCAGAGGUCGAU [ATK007]”, the binding result in data set [1] was “no binding”. Further, the Kd in the data set with TNF-alpha (Homo sapiens) [2] is 30 nM. Moreover, the “functional effect of the aptamer” value with TNF-alpha (Homo sapiens) [3] (similar to anti-TNF-alpha mAb) is listed as “active”.
“GGGAGGACGAUGCGGCCACUGGCUAGGAACUCGAGUACUGGGUGGCAGACGACUCGCCCGA [ATK001]”: in data set [1], the binding result was “no binding”. The Kd stood at 43 nM with TNF-alpha (Homo sapiens) [2] and 18 nM with TNF-alpha (Homo sapiens) [4]. In the data set with TNF-alpha (Homo sapiens) [3], the “functional effect of the aptamer” value is on record as “active”.
